Source: patent US20250281465A1, “MOLECULES THAT ENHANCE EXTRACELLULAR VESICLE RELEASE” (priority 2022, published 2025)
“Also recorded” adds a separate entry of the source. At least one structure is not confirmed: it was looked up by name or label, or the drawing left a doubt.

Legend:
NF-κB = test: NF-κB-bla THP-1 HTS; format: cell-based, human; conditions: 10 μM, 5 hours
Experimental: The robotic HTS using the three reporter cells were performed using 384-well plates by the SelectScreen™ service, Thermo Fisher Scientific (Madison, WI) (Pu et al., 2012; Chan et al., 2017b; Shukla et al., 2018). For HTS using NF-κB-bla and ISRE-bla THP-1 cells, LPS (100 ng/ml) and human IFN-α (50 nM) were used as the positive controls, respectively, while 0.5% DMSO was used as vehicle (Veh). The cells were incubated with compounds (10 μM) for 5 hours, and LiveBLAzer™ FRET BIG substrate (CCF4-AM) mixture was added. Fluorescence was measured at an excitation wavelength of 405 nm, and emission wavelengths of 465 and 535 nm. The background values were subtracted from the raw values (cell-free wells at the same fluorescence wavelength). Emission ratios were calculated by dividing background-subtracted values from em1ss1on wavelength of 465 nm by those from emission wavelength of 535 nm. The response ratio (RR) was calculated as follows (emission ratio of a test well)/(average emission ratio of wells with Veh). Further, for comparison of activity, “% activation” for each compound was computed within the plate as 100×(compound RR−average Veh RR)/(average LPS RR−average Veh RR).

C57BL/6 mice = test: In vivo adjuvanticity with ovalbumin as model antigen; design: species or system mouse; conditions: HTS follow-up, OVA model antigen
Experimental: FIGS. 1A-1D. Intracellular Ca^2+ influx screening of 84 HTS hit candidate compounds. (A) THP-1 cells were loaded with the ratiometric Ca^2+ indicator, Fura-2, and treated with lonomycin (ION, 1 μM), Thapsigargin (1 μM), or 84 hit candidate compounds (10 μM) for 25 minutes. Data are presented as the area under the curve (AUG) of OD340/380 ratios corresponding to the intracellular Ca^2+ kinetics. The baseline-subtracted AUG was calculated using GraphPad Prism (GraphPad Software, San Diego, CA). (B) Ca^2+ mobilization by compound #634. mBMDCs were loaded with the ratiometric Ca^2+ indicator, Fura-8, and treated with ION (1 μM), or #634 (2 and 10 μM) for 25 minutes. The dashed line indicates the timing of compounds added. […] OVA-specific IgGI and IgG2c levels in sera were determined by ELISA. **p<0.01, ***p<0.001, ns (not significant) by KruskalWallis tests with Dunn's post hoc test vs. Veh. […]
Eighty-four hit candidate compounds were also screened for in vivo adjuvant activities using C57BL/6 mice and model antigen ovalbumin (OVA). […] Sera were collected on day 28, and OVA-specific immunoglobulins IgG1 and IgG2c were determined by ELISA (FIG. 1D).
The selected 80 compounds were first evaluated for purity and identity by HPLC-MS and compounds which were less than 90% pure were purified by Prep-HPLC. These were then evaluated for vaccine adjuvant activity in mice using a model antigen, ovalbumin (OVA). […]

mBMDCs [1] = test: Co-culture of mBMDCs with isolated EVs (IL-12); conditions: parent cells 10 μM 48 hours; 7 μL EVs, 18 hours; vs EVs of Veh-treated cells
[2] = test system: CD63-Tluc-CD9-EmGFP THP-1 reporter cells; test: CD63 Tluc-CD9 EmGFP THP-1 reporter cell assay (EV/exosome release); format: cell-based, human; conditions: 10 μM, 48 hours
Experimental: All these analogs were evaluated for induction of IL-12 cytokine at 10 μM, followed by dose response IL-12 induction for selected analogs. These analogs were also evaluated for exosome release by quantitating EV release in the supernatant post 48 hours incubation with CD63-Tluc-CD9-EmGFP THP-1 reporter cells.
In the HTS using CD63-Tluc-CD9EmGFP reporter cells (CD63 HTS), PMA (10 ng/ml) was used as a positive control (Shpigelman et al., 2021) and 0.5% DMSO was used as negative control (vehicle, Veh). […] Subsequently, the plate was centrifuged, supernatant (25 μL) was transferred, and chemiluminescent was measured as recombinant luciferase activity (RLU) after 10 minutes incubation with TurboLuc assay reagent (TurboLuc™ One-Step Glow Assay kit, Thermo Fisher Scientific). The response that measures activation and subsequent release of EVs was calculated using the following formula; % response=100×(compound RLU−average Veh RLU)/(average PMA RLU−average Veh RLU). The viability of cells was assessed using PrestoBlue reagent (Thermo Fisher Scientific). Briefly, PrestoBlue reagent (2.5 μl) was added to the remaining cells and incubated for 30 minutes at room temperature, followed by fluorescence readout at (Ex 560 nm/Em 590 nm) which was normalized to fluorescence data of the Veh wells within the plate to obtain “% viability” calculated as 100×(compound fluorescence/average Veh fluorescence). […]

mBMDCs [3] = test: EV release from mBMDCs (differential ultracentrifugation, MRPS); conditions: 10 μM, 46-48 h, vs Veh

c1csc(-c2cncc(-c3nnc(-c4cccc5ccccc45)o3)c2)c1 [#645]
NF-κB activity (primary HTS) (NF-κB): equipotent activity
adjuvant activity in vivo (C57BL/6 mice): good adjuvant (in vivo)
IL-12 release by fresh mBMDCs co-cultured with EVs from compound-treated mBMDCs (mBMDCs [1]): stimulated higher levels of IL-12 release; also recorded: induced IL-12 release
CD63 activity (primary HTS) [2]: enhanced the upregulation of CD63; also recorded: equipotent activity
number of EV particles released in the culture supernatant (mBMDCs [3]): increased the number of EV particles released; also recorded: relatively high
